Literature values in US20220308043A1, “FLUORESCENT PROBES FOR IDENTIFICATION AND QUANTIFICATION OF HEPATIC TRANSPORTERS IN VITRO AND IN VIVO” (Université d'Orléans, priority 2021, published 2022).
At least one structure is not confirmed: it was looked up by name or label, or the drawing left a doubt.

Tested on: Efflux transporters
Settings: cited from earlier work

Cc1c(C)c2c(c(C)c1O)CCC(C)(COc1ccc(CC3SC(=O)NC3=O)cc1)O2 (stereo not shown) [Troglitazone]
Theoretical effect: Efflux transporters interaction: MRP2/BSEP
